Data as given in PMC11672745.
No constants are given. Whether binding was seen depends on the method and setting. Binding calls can cover weak binding; strength is not graded here. For some of these results: In cells and extracts the contact can be indirect.

Amino acid sequences for entries named in this document (tags omitted). A change or cut given only in a name is not applied to a line headed by its entry.
UniProt L7QJV4: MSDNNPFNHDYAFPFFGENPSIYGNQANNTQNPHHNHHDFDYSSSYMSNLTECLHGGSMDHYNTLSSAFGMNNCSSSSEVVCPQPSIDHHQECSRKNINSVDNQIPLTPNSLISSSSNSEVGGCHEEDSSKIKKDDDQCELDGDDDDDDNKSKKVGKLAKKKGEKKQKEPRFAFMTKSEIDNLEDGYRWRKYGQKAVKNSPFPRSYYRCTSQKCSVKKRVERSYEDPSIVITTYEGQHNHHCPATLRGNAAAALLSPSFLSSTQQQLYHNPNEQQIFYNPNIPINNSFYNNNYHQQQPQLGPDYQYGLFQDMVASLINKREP
UniProt A0A3Q7H988: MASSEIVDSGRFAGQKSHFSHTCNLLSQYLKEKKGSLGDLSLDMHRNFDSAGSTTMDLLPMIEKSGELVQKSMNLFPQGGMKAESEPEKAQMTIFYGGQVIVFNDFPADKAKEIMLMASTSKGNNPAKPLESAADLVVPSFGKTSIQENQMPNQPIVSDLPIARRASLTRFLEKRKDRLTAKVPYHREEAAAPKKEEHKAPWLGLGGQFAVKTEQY
UniProt B6D1Q5: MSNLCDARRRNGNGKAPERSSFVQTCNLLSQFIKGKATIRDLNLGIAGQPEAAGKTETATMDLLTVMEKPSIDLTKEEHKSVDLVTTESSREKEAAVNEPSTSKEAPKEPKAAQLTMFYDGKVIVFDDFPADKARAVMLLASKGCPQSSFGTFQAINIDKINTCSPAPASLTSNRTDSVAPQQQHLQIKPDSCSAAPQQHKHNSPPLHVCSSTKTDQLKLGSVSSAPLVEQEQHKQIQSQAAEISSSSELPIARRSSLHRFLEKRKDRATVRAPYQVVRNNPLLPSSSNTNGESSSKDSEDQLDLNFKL
UniProt A0A3Q7FUH8: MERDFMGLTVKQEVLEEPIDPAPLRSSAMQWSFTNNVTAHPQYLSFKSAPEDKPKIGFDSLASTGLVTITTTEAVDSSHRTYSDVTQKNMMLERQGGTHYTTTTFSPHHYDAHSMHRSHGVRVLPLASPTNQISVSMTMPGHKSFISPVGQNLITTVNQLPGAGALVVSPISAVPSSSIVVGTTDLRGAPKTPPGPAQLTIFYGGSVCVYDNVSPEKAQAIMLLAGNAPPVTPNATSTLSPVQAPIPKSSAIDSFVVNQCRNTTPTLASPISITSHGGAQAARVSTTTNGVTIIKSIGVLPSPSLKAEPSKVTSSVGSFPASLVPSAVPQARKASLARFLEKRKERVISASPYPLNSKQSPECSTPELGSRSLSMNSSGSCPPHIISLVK

Legend:
[1] = target: SlVQ15 fused with the DNA binding domain (BD) in pLexA (tomato (Solanum lycopersicum)); assay: two-hybrid; Y2H screening; SlVQ15 in pLexA (BD) as bait against a cDNA library from roots of 28-day-old CM seedlings infected with M. incognita for 24 h; 68 positive colonies
[2] = target: C-terminal part of LUC (cLUC)-fused SlWRKY30IIc (tomato (Solanum lycopersicum)) (UniProt L7QJV4); assay: split reporter; firefly luciferase complementation imaging (LCI); nLUC and cLUC fusions coexpressed in N. benthamiana leaves, imaged 50 h after injection

Substance | binding [1] | binding [2]
SlWRKY30IIc fragment aa 170-322 captured in the Y2H screen (from UniProt L7QJV4) (domain or fragment) | binds | 
nLUC-fused SlJAZ1 (from UniProt A0A3Q7H988) |  | binds
nLUC-fused SlJAZ3 (from UniProt B6D1Q5) |  | binds
nLUC-fused SlJAZ5 (from UniProt A0A3Q7FUH8) |  | binds
